{
  "source": "patent US10772928B2",
  "about": "“Modulation and detection of a neuronal alternative splicing regulatory network for treatment and diagnosis of neurological disorders” (The Governing Council of the University of Toronto, priority 2014, dated 2020)",
  "molecules": {"B1": {"name": "Fip1l1 (protein, UniProt Q9D824 1-581, looked up)", "Pre-mRNA 3'-end-processing …": "MSAGEVERLVELSGGTGGDEEEEWLYGGPWDVHVHSDLAKDLDENEVERPEEENASANPPSGIEEEAAENGVAKPKVTETEDDSDSDSDDDEDDVHVTIGDIKTGAPQYGSYGTAPVNLNIKAGGRVYGNTGTKVKGVDLDAPGSINGVPLLEVDLDSFEDKPWRKPGADLSDYFNYGFNEDTWKAYCEKQKRIRMGLEVIPVTSTTNKITVQQGRTGNSEKEAALPSTKAEFTSPPSLFKTGLPPSRNSTSSQSQTSTASRKASSSVGKWQDRYGRAESPDLRRLPGAIDVIGQTITISRVEGRRRANENSNIQVLSDRSATEVDNNFSKPPPFFPPGAPPTHLPPPPFLPPPPTVSTAPPLIPPPGIPITVPPPGFPPPPGAPPPSLIPTIESGHSSGYDSRSARAFPYGNVAFPHLTSSAPSWPSLVDTTKQWDYYARREKDRDRDRERDRDRERERDRDRERERTRERERERDHSPTPSVFNSDEERYRYREYAERGYERHRASREKEERHRERRHREKEETRHKSSRSNSRRRHESEEGDSHRRHKHKKSKRSKEGKEAGSEPVPEQESTEAAPAE"}},
  "system": "microexons",
  "assay": "Neural-regulated microexons by RNA-Seq pipeline across mouse cell and tissue types",
  "settings": "mouse neural-regulated microexon (mm9); NEURAL-UP or NEURAL-DOWN",
  "note": "What was measured is the transcript of the gene that encodes the chain shown.",
  "data": [
    {"molecule": "B1", "values": [
      {"measurement": "Regulation in Brain", "value": "NEURAL-UP"}
    ]}
  ]
}
